Biological target: human orexin-1 receptor (Homo sapiens (Human), UniProt O43613)
Test: In vitro assay: intracellular calcium measurements (FLIPR), antagonistic activity
Assay type: cell-based
Conditions: CHO cells expressing human orexin-1 receptor, orexin-A agonist, geometric mean, read-out: IC50 Ox1
Procedure: In Vitro Assay: Intracellular Calcium Measurements:
Chinese hamster ovary (CHO) cells expressing the human orexin-1 receptor and the human orexin-2 receptor, respectively, are grown in culture medium (Ham F-12 with L-Glutamine) containing 300 μg/ml G418, 100 U/ml penicillin, 100 μg/ml streptomycin and 10% heat inactivated fetal calf serum (FCS). The cells are seeded at 20,000 cells/well into 384-well black clear bottom sterile plates (Greiner). The seeded plates are incubated overnight at 37° C. in 5% CO2.
Human orexin-A as an agonist is prepared as 1 mM stock solution in MeOH: water (1:1), diluted in HBSS containing 0.1% bovine serum albumin (BSA), NaHCO3: 0.375 g/l and 20 mM HEPES for use in the assay at a final concentration of 3 nM. […]
Within the Fluorescent Imaging Plate Reader (FLIPR Tetra, Molecular Devices), antagonists are added to the plate in a volume of 10 μl/well, incubated for 120 min and finally 10 μl/well of agonist is added. Fluorescence is measured for each well at 1 second intervals, and the height of each fluorescence peak is compared to the height of the fluorescence peak induced by an approximate EC70 (for example 5 nM) of orexin-A with vehicle in place of antagonist. […] The calculated IC50 values may fluctuate depending on the daily cellular assay performance. […]

Sequences of proteins named here, by UniProt entry; tags and fusion partners are left off.
UniProt O43613, whole entry: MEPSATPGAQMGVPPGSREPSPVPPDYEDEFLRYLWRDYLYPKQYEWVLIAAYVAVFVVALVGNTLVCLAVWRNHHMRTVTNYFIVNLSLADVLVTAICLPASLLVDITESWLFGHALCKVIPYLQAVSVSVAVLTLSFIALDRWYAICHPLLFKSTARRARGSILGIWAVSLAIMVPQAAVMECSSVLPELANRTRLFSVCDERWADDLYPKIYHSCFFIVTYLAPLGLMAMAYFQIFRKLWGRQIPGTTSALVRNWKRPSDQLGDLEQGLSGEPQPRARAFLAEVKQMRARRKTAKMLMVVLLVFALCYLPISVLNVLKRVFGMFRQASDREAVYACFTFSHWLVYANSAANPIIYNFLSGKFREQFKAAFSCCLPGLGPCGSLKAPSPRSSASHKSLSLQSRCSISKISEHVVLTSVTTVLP

Cc1c(Br)cc2[nH]c([C@]3(C)CCCN3C(=O)c3c(F)cccc3-n3nccn3)nc2c1C [Ex. 5.268]
IC50: 6 nM

— patent publication US9732075B2, “Benzimidazole-proline derivatives” (IDORSIA PHARMACEUTICALS LTD, priority 2012, dated 2017)
